We go through five molecules from paper PMC10950329.

Sequences of proteins named here, by UniProt entry; tags and fusion partners are left off.
UniProt O08808: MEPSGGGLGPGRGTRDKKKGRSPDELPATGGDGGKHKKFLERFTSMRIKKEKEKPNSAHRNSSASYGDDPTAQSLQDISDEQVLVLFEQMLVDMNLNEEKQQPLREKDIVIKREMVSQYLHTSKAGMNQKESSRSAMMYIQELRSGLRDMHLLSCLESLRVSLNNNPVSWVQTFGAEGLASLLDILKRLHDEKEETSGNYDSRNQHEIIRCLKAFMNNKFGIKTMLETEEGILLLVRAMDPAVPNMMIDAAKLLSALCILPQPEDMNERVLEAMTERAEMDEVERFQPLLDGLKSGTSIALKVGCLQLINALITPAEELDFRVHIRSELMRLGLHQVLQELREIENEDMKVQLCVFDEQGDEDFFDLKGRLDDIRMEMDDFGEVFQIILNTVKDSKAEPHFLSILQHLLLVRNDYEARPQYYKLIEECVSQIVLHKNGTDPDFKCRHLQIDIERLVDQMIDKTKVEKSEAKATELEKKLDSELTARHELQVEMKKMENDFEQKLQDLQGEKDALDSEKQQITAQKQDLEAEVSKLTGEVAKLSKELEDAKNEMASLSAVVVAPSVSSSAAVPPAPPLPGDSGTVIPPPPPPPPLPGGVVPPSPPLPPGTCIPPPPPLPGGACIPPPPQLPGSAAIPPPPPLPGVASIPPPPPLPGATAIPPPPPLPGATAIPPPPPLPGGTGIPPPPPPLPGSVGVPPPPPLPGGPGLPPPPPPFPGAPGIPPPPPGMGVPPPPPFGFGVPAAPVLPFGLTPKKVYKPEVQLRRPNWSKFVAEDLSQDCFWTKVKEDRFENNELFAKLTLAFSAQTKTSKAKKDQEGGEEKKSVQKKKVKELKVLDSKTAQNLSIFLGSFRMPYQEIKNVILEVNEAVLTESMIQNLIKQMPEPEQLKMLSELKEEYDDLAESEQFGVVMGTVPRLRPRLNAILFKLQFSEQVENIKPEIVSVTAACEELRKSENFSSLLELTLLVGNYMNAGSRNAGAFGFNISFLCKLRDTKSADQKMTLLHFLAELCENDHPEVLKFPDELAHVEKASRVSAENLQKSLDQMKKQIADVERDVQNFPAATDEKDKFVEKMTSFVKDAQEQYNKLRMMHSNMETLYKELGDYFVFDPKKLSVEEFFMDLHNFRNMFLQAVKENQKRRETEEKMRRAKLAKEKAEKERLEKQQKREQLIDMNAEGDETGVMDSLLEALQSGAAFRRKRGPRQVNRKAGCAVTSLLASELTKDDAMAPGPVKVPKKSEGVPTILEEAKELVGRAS
UniProt Q8CHC4: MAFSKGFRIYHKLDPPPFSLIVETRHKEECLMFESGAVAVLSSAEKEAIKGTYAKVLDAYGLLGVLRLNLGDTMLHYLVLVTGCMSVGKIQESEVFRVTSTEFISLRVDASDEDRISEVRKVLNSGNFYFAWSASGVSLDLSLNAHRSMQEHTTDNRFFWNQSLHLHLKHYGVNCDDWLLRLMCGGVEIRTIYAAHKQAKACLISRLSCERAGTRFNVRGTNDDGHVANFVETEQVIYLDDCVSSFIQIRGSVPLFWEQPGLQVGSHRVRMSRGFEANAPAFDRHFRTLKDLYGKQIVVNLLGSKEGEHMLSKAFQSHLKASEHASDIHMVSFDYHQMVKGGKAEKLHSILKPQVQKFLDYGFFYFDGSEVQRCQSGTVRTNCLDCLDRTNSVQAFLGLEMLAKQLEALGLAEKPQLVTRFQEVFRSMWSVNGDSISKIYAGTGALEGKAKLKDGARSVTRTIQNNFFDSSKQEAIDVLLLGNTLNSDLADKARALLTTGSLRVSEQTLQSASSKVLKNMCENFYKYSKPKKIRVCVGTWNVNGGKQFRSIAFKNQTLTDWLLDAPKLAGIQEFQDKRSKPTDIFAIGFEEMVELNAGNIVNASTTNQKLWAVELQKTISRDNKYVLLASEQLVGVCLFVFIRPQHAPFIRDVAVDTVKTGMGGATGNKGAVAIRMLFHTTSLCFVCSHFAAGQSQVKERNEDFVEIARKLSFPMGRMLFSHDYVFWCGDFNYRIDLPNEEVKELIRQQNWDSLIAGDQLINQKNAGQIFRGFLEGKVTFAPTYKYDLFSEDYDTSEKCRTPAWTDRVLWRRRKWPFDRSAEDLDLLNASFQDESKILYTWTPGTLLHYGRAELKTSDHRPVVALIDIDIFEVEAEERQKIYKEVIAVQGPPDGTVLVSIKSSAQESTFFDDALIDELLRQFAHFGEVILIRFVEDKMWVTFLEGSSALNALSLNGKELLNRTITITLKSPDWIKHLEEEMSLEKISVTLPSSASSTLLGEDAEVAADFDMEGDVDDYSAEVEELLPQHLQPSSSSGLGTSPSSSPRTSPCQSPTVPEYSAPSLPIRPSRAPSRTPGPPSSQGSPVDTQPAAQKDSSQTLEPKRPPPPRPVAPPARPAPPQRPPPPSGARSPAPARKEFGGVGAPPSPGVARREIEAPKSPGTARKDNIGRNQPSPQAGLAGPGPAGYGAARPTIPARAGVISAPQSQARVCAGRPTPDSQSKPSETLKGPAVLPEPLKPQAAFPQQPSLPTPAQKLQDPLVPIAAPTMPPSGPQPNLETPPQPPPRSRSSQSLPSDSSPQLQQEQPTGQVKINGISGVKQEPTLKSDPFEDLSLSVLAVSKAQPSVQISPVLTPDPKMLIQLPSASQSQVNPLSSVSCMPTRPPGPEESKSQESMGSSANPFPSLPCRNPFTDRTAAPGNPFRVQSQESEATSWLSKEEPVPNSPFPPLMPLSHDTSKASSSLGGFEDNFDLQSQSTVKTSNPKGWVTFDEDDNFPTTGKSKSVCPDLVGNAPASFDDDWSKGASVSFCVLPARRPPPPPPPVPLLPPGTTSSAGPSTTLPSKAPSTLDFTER
UniProt Q9WVE8: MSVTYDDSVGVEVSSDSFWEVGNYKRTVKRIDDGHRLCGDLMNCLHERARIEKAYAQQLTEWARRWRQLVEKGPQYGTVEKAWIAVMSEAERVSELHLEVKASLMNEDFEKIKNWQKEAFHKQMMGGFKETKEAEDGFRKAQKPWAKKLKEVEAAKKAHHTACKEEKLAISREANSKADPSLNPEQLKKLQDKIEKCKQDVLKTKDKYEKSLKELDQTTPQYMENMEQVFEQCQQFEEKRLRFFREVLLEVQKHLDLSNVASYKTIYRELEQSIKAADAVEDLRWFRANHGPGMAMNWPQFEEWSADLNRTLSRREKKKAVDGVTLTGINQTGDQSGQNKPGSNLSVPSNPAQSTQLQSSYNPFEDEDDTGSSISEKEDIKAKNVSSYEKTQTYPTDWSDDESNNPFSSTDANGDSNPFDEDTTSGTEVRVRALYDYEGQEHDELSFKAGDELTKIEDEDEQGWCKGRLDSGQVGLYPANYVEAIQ
UniProt Q61644: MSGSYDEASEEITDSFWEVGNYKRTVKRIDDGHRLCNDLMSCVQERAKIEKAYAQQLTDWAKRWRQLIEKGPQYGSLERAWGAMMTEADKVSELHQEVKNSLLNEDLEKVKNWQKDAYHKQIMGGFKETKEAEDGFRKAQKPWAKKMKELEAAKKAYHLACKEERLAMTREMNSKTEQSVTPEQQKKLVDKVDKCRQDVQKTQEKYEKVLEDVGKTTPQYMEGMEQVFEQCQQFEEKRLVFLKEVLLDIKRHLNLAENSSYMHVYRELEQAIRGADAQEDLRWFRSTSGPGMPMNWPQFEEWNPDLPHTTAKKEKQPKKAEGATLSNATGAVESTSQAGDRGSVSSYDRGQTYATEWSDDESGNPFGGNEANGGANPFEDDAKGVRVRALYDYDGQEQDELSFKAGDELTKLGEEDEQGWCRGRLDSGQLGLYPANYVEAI

No constants are given. Whether binding was seen depends on the method and setting. Binding seen in cells or lysates may run through a third protein. These calls come from enrichment with a bait or labelling near it, and not all partners need be listed.

For the assay, the target named is mDia1 (mouse (endogenous in brain synaptosomes)) (UniProt O08808). Kind of assay: affinity purification with mass spectrometry; anti-mDia1 versus control IgG immunoprecipitates from detergent-extracted (1% CHAPS) mouse synaptosomes (P2' fraction), Protein A/G magnetic beads, 4 °C; label-free LC-MS, N=3.

For the molecule “Synaptojanin1 (from UniProt Q8CHC4 1-1574)”, the binding result is recorded as “binds”.
Then PACSIN2 (from UniProt Q9WVE8 1-486), with “binds”; and PACSIN1 (from UniProt Q61644 1-441), with “binds”.

B1: Amphiphysin (protein, UniProt Q7TQF7 1-686)
chain: MADIKTGIFAKNVQKRLNRAQEKVLQKLGKADETKDEQFEEYVQNFKRQEAEGTRLQRELRGYLAAIKGMQEASMKLTESLHEVYEPDWYGREDVKMVGEKCDVLWEDFHQKLVDGSLLTLDTYLGQFPDIKNRIAKRSRKLVDYDSARHHLEALQSSKRKDESRISKAEEEFQKAQKVFEEFNVDLQEELPSLWSSRVGFYVNTFKNVSSLEAKFHKEIAVLCHKLYEVMTKLGDQHADKAFSIQGAPSDSGPLRIAKTPSPPEEPSPLPSPTASPNHTLAPASPAPVRPRSPSQTRKGPPVPPLPKVTPTKELKQENIINFFEDNFVPEINVTTPSQNEVLEVKKEETLLDLDFDPFKPDVAPAGSAAATHSPMSQTLPWDLWTTSTDLVQPASGGSFNDFTQAQDTSLFTMQTDQNMAETEQALPTEPQAEEPPATAAAPTAGLDLGLEMEEPKEEAVIPPATDTGETVETAVPTEGAPVEEAEAEKAALPAGEGGSPEGAKIDGESTELAISESPQPVEPEAGAPQVIPSVVIEPASNHEGEGEHQETATGTEPREAAEDVAAQGSAGEKQEVATEPTPLDSQATLPASAGAVDASLSAGDATQELPPGFLYKVETLHDFEAANSDELNLQRGDVVLVVPSDSEADQDAGWLVGVKESDWLQYRDLATYKGLFPENFTRRLE
For B1, the binding result is “binds”.

B2: Dynamin1 (protein, UniProt P39053 1-867)
chain: MGNRGMEDLIPLVNRLQDAFSAIGQNADLDLPQIAVVGGQSAGKSSVLENFVGRDFLPRGSGIVTRRPLVLQLVNSTTEYAEFLHCKGKKFTDFEEVRLEIEAETDRVTGTNKGISPVPINLRVYSPHVLNLTLVDLPGMTKVPVGDQPPDIEFQIRDMLMQFVTKENCLILAVSPANSDLANSDALKIAKEVDPQGQRTIGVITKLDLMDEGTDARDVLENKLLPLRRGYIGVVNRSQKDIDGKKDITAALAAERKFFLSHPSYRHLADRMGTPYLQKVLNQQLTNHIRDTLPGLRNKLQSQLLSIEKEVDEYKNFRPDDPARKTKALLQMVQQFAVDFEKRIEGSGDQIDTYELSGGARINRIFHERFPFELVKMEFDEKELRREISYAIKNIHGIRTGLFTPDMAFETIVKKQVKKIREPCLKCVDMVISELISTVRQCTKKLQQYPRLREEMERIVTTHIREREGRTKEQVMLLIDIELAYMNTNHEDFIGFANAQQRSNQMNKKKTSGNQDEILVIRKGWLTINNIGIMKGGSKEYWFVLTAENLSWYKDDEEKEKKYMLSVDNLKLRDVEKGFMSSKHIFALFNTEQRNVYKDYRQLELACETQEEVDSWKASFLRAGVYPERVGDKEKASETEENGSDSFMHSMDPQLERQVETIRNLVDSYMAIVNKTVRDLMPKTIMHLMINNTKEFIFSELLANLYSCGDQNTLMEESAEQAQRRDEMLRMYHALKEALSIIGDINTTTVSTPMPPPVDDSWLQVQSVPAGRRSPTSSPTPQRRAPAVPPARPGSRGPAPGPPPAGSALGGAPPVPSRPGASPDPFGPPPQVPSRPNRAPPGVPSLGAWRLNSPQGKHENRAGKARL
In the case of B2, the binding entry was “binds”.
